In the supplement of paper PMC10735217:
Structures can show the parent of a compound that is named as a salt. This is one part of the list. This data set is noisy: repeats of one test often differ as much as different tests do.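 In a drug-repurposing library screen, luminescence reads luciferase driven by eight TEAD-binding elements, stably integrated into human kidney-derived cells. Compounds scoring over five robust Z scores above the plate mean are called hits.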

System: HEK293A TEAD-LUC reporter
Experiment: TEAD-luciferase reporter activity (YAP activation), robust Z score vs plate; higher = stronger YAP/TEAD activation
Conditions: 24 h

Structure (SMILES) | TEAD-luciferase reporter activity (compound concentration: 200 nM) | TEAD-luciferase reporter activity (compound concentration: 2 uM) | TEAD-luciferase reporter activity (compound concentration: 10 uM)
CC(=O)NS(=O)(=O)c1ccc(NC(=O)c2ccccc2C(=O)O)cc1 | inactive: 1.51 | inactive: 0.731 | inactive: -0.199
Cc1c(CC(=O)O)c2cccnc2n1Cc1ccc(S(C)(=O)=O)cc1C(F)(F)F [Fevipiprant] | inactive: 1.48 | inactive: -0.927 | inactive: -0.0143
COc1ccc(C(=O)NCc2ccc(OCCN(C)C)cc2)cc1OC [itopride hydrochloride ER] | – | inactive: -1.23 | –
COc1ccc(C(=O)NCc2ccc(OCCN(C)C)cc2)cc1OC | inactive: 0.997 | – | inactive: -1.03
Clc1ccc(/C(=C\c2ccc(Cl)cc2Cl)Cn2ccnc2)cc1 | inactive: -0.86 | inactive: -0.736 | inactive: -0.921
CC(C)Oc1ccc2oc3ccc(C(=O)O)cc3c(=O)c2c1 [Xanoxic acid] | inactive: 2.13 | inactive: -1.73 | inactive: 2.27
NC(=O)C1c2ccccc2CCc2ccccc21 | inactive: 2.6 | inactive: -0.967 | inactive: -1.4
COc1c(C(C)C(=O)S[C@@H](C)C(=O)NCC(=O)O)ccc2ccccc12 (stereo partly drawn) | inactive: -0.266 | inactive: 0.276 | inactive: -0.122
CN(C)CCOC(c1ccccc1)c1ccnn1C (stereo not drawn) [Cizolirtine citrate] | inactive: -0.147 | inactive: -1.26 | inactive: -0.469
Cc1nc(-c2ccc(C(F)(F)F)cc2)sc1COc1ccc(C(=N)NO)c(Cl)c1 | inactive: -1.16 | inactive: -0.345 | inactive: 2.27
Nc1ccc2cc3ccc(N)cc3nc2c1 [Proflavine] | inactive: 1.5 | inactive: 3.54 | inactive: -1.18
CONC(=O)c1ccccc1Nc1cc(Nc2cc(C)nn2C(C)C)ncc1Cl | inactive: -0.58 | inactive: -1.39 | inactive: -1.67
C[C@@H](OC(C)(C)C)[C@H](NC(=O)OCc1ccccc1)C(=O)OCc1ccccc1 | inactive: 1.37 | inactive: 1.62 | inactive: -2.16
OCc1cccnc1 | inactive: -0.985 | inactive: -1.06 | inactive: -0.195
O=C(CCCN1CCC(O)(c2cccc(C(F)(F)F)c2)CC1)c1ccc(F)cc1 | inactive: 1.87 | inactive: -0.327 | inactive: 2.61
CC(=O)c1cc2c(o1)C(=O)c1ccccc1C2=O [Napabucasin] | inactive: 0.822 | inactive: -1.19 | inactive: -1.46
OC[C@H]1O[C@H](O[C@]2(CCl)O[C@H](CCl)[C@@H](O)[C@@H]2O)[C@H](O)[C@@H](O)[C@H]1Cl | inactive: 2.24 | inactive: -1.4 | inactive: 3.92
CNC(=O)c1c[nH]c2cccnc12 | inactive: -2.45 | – | active: 8.17
CC1SC(=O)NN=C1c1ccncc1 (stereo not drawn) | inactive: -0.267 | inactive: 0.41 | inactive: -1.04
CC[C@H](CC#N)OC(=O)NC(C)c1cccc(NC(=O)Nc2ccc(C#N)c(OC)c2)c1 (stereo partly drawn) | inactive: -0.466 | inactive: -0.75 | active: 6.3

Single records (already shown).
OCc1cccnc1 is entered as TEAD-luciferase reporter activity (compound concentration: 200 nM): inactive: -0.985; TEAD-luciferase reporter activity (compound concentration: 2 uM): inactive: -1.06; TEAD-luciferase reporter activity (compound concentration: 10 uM): inactive: -0.195
CONC(=O)c1ccccc1Nc1cc(Nc2cc(C)nn2C(C)C)ncc1Cl is entered as TEAD-luciferase reporter activity (compound concentration: 200 nM): inactive: -0.58; TEAD-luciferase reporter activity (compound concentration: 2 uM): inactive: -1.39; TEAD-luciferase reporter activity (compound concentration: 10 uM): inactive: -1.67

The list continues.

Structure (SMILES) | TEAD-luciferase reporter activity (compound concentration: 200 nM) | TEAD-luciferase reporter activity (compound concentration: 2 uM) | TEAD-luciferase reporter activity (compound concentration: 10 uM)
COc1cc2nc(N3CCN(C(=O)c4nnc(SC)o4)CC3)nc(N)c2cc1OC [tiodazosin] | inactive: -0.61 | inactive: 1.11 | inactive: -0.0277
O=C1CCc2cc(OCCCCc3nnnn3C3CCCCC3)ccc2N1 [cilostazol SR] | inactive: -0.778 | inactive: 1.94 | inactive: -0.866
COc1ccc(CCN(C)CCOc2ccc(NS(C)(=O)=O)cc2N)cc1OC | inactive: -0.256 | inactive: -0.271 | inactive: 1.42
COc1ccc(Oc2cc(N(C)CCOc3ccc(CC4SC(=O)NC4=O)cc3)ncn2)cc1 (stereo not drawn) | inactive: -0.814 | inactive: -0.555 | inactive: 2.64
CCCC(=O)Nc1ccc(OCC(O)CNC(C)C)c(C(C)=O)c1 (stereo not drawn) | inactive: -1.21 | – | active: 5.89
CCCC(=O)Nc1ccc(OCC(O)CNC(C)C)c(C(C)=O)c1 (stereo not drawn) [acebutolol] | – | inactive: 0.106 | –
O=C(Cc1cccc(Cl)c1)N1CCC(n2c(=O)[nH]c3ccccc32)CC1 | inactive: -0.851 | – | inactive: -0.953
Oc1nc(S)ncc1I | inactive: -0.763 | inactive: 1.88 | inactive: -0.591
Cc1cc(C)n(-c2ccccc2O)n1 | inactive: -0.868 | inactive: -0.436 | inactive: -1.08
Cc1cccc2cc(CN(Cc3cc(C(F)(F)F)cc(C(F)(F)F)c3)c3nnn(C)n3)c(N(CC3CC3)CC3CC3)nc12 | inactive: -0.32 | inactive: -1.28 | inactive: -0.165
C=CCc1c(OCc2ccccn2)ccc2c1CN1C(=O)CN(C3CCCC3)C(=O)[C@H]1C2 | inactive: -2.42 | inactive: -0.462 | inactive: 2.73
Cc1cc(C)c(N(C)CC(=O)Nc2nc(-c3ccccn3)c[nH]2)c(C)c1 | inactive: -1.34 | inactive: -0.279 | inactive: -0.855
Cc1cc2c(cc1C(=O)Oc1ccc(C(=O)O)cc1)C(C)(C)CCC2(C)C | inactive: -1.39 | inactive: 3.39 | inactive: 2.03
CCOC(=O)/C=C1\SC(N2CCCC2)C(=O)N1C (stereo not drawn) | inactive: 0.376 | inactive: -0.986 | inactive: 1.92
CSc1ccc(Oc2ccc(S(N)(=O)=O)cc2CN(C)C)cc1C | inactive: -0.94 | inactive: 2.04 | inactive: -0.0706
Cc1cc(C(=O)Nc2nc3cccc(Cl)c3n2[C@@H]2CCCCN(C(=O)/C=C/CN(C)C)C2)ccn1 [Nazartinib] | inactive: -2.2 | inactive: -0.213 | inactive: -0.765
CCCn1c(=O)c2[nH]c(C34CC5CC3CC(C4)C5O)nc2n(CCC)c1=O (stereo not drawn) | inactive: 1.55 | inactive: -1.12 | inactive: 2.56
Cc1nc(Nc2ncc(N3CCN(C)[C@H](C)C3)c(Nc3cc(C)n(C)n3)n2)cc(C2CC2)c1F | inactive: 1.05 | – | inactive: -0.0673
O=C(O)CCCCC(CCSCc1ccccc1)SCc1ccccc1 (stereo not drawn) [AML therapy, Cornerstone Pharmaceuticals] | inactive: -2.33 | inactive: 3.29 | active: 11.3
